In paper PMC2575377:
Results are given in words; binding and its absence hold for the method and conditions named. Binding seen in cells or lysates may run through a third protein. A result given as binding can be weak or reduced; the word gives no strength.

Legend:
[1] = target: T1, intercellular adhesion molecule-2 (ICAM-2), full length (human) (UniProt P13598); assay: co-IP; lysates of SK-N-AS transfectants (pIRESneo, pIRES.ICAM2, pIRES.ICAM2ΔCD) immunoprecipitated with the antibody that recognized the N-terminus of ICAM-2; immunoblot for ICAM-2, α-actinin or actin (Fig. S1, Fig. 3B)
T1 sequence: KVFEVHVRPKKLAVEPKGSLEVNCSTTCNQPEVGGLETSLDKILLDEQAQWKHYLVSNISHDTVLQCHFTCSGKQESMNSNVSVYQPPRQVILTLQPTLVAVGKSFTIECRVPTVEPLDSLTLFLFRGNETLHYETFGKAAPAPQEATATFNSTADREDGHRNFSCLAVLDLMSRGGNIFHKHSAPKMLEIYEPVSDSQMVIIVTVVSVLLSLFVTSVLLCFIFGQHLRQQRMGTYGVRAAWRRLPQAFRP

[2] = target: α-actinin (human (endogenous in SK-N-AS)); assay: co-IP; lysate of SK-N-ASpIRES.ICAM2 cells immunoprecipitated with a monoclonal antibody to α-actinin (MAB1682) or control immunoglobulin; immunoblot for ICAM-2 and actin

For “α-actinin (human (endogenous in SK-N-AS))”, the binding [1] was “binds”.

B1: intercellular adhesion molecule-2 (ICAM-2), full length (protein, UniProt P13598 25-275)
chain: T1 sequence
B1 was tested, and the binding [2] was “binds”.
